Consider 4 compounds from patent US6534313B1, “Genetically modified plants having modulated brassinosteroid signaling” (The Salk Institute for Biological Studies, priority 1999, dated 2003).

A short description of the data set: Quantitative analysis of endogenous brassinosteroids in rosettes by gas chromatography-selected ion analysis with internal standards. The note with it: for Brassinosteroid levels: rosettes, five weeks on soil, short day; for endogenous level in bas1-DphyB-4 compared with phyB-4: bas1-DphyB-4 versus phyB-4 plants. More on the design: species or system Arabidopsis.

Regarding `CC(C)[C@H](C)[C@@H](O)[C@H](O)[C@@H](C)[C@H]1CC[C@H]2[C@@H]3CC[C@H]4C[C@H](O)[C@H](O)C[C@]4(C)[C@H]3CC[C@]12C` [6-deoxoCS, 6-deoxocastasterone], the “endogenous level in bas1-DphyB-4 compared with phyB-4” value is “greatly reduced”. This compound showed a Brassinosteroid levels (bas1-D phyB-4 plants) of 0.04 ng/g fresh weight. This compound gave a Brassinosteroid levels (phyB-4 plants) of 0.79 ng/g fresh weight.
For `CC(C)[C@H](C)[C@@H](O)[C@H](O)[C@@H](C)[C@H]1CC[C@H]2[C@@H]3CC[C@H]4C[C@@H](O)CC[C@]4(C)[C@H]3CC[C@]12C` [6-deoxoTE, 6-deoxoteasterone], the “endogenous level in bas1-DphyB-4 compared with phyB-4” value is “increased accumulation”. For the same compound, the Brassinosteroid levels (bas1-D phyB-4 plants) stood at 0.26 ng/g fresh weight. Besides, the Brassinosteroid levels (phyB-4 plants) is 0.19 ng/g fresh weight.
As for `CC(C)[C@H](C)[C@@H](O)[C@H](O)[C@@H](C)[C@H]1CC[C@H]2[C@@H]3COC(=O)[C@H]4C[C@H](O)[C@H](O)C[C@]4(C)[C@H]3CC[C@]12C` [BL, brassinolide], the “endogenous level in bas1-DphyB-4 compared with phyB-4” value is listed as “not detected”. Moreover, the Brassinosteroid levels (phyB-4 plants) is reported as 0.32 ng/g fresh weight.
In the case of `CC(C)[C@H](C)[C@@H](O)[C@H](O)[C@@H](C)[C@H]1CC[C@H]2[C@@H]3CC(=O)[C@H]4C[C@H](O)[C@H](O)C[C@]4(C)[C@H]3CC[C@]12C` [CS, castasterone], the “endogenous level in bas1-DphyB-4 compared with phyB-4” value is “greatly reduced”. For the same compound, under “bas1-D phyB-4 plants”, the Brassinosteroid levels is 0.02 ng/g fresh weight. Besides, the Brassinosteroid levels (phyB-4 plants) came to 0.13 ng/g fresh weight.
